Test results taken from patent publication US4478827A (The General Hospital Corporation, priority 1983, dated 1984).

Assays:
[1] = Boc solid-phase peptide synthesis; Merrifield resin; LeBop; settings: whole synthesis, from protected peptidyl-polymer after HF cleavage, scale 377 micromoles
[2] = general procedure: Boc solid-phase peptide synthesis; LS-601 Merrifield Resin containing 0.75 mMol Cl g^-1 (Laboratory Systems Inc.); LeBop; settings: purification step, on 391 mg crude

PEPTIDE1{P.H.P.F.H.F.F.V.Y.[dK]}$$$$V2.0
crude yield [1]: 92% | step yield [2]: 80%

Some peptides are written in HELM: one residue between dots, names in brackets for other building blocks, links after the first $.
